Results taken from PubChem BioAssay AID1347075 (National Center for Advancing Translational Sciences (NCATS), 2019).
Out of some 400,000 compounds screened, about 5,500 (1.4%) were called active. This list was built around the results that the source calls inconclusive (neither active nor inactive); the mix of calls is not that of the screen. Calls come from the whole dose curve; as a rule, active = well fitted cell-killing curve with a large enough effect; inconclusive = small, poorly fitted or top-dose-only effect, or effect the other way; inactive = flat fitted curve, though single readings scatter. Potencies of inconclusive entries are doubtful fits and often do not repeat.

Experiment: qHTS assay for MDR1-selective chemotherapeutics: Primary screen using the parental adenocarcinoma cell KB-3-1; note: nearly all actives have a fitted effect of over 60% in size
Settings: KB-3-1 viability, CellTiter-Glo ATP luminescence, 72 h; activity change, negative = cytotoxic: at 46.1 µM (top of the series)
How it was run: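 Luminescent ATP read-out (CellTiter-Glo) measures survival of drug-naive KB-3-1 cells after 72 h compound exposure at 37 °C. Titration series was screened from lowest to highest concentration, with DMSO vehicle plates as background controls.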
% is set by controls: 0 for no effect and ±100 for the full control effect; potency is the fitted concentration of half-maximal effect.

| SMILES | activity change, negative = cytotoxic | Potency |
| --- | --- | --- |
| CCC1CN(C)C2Cc3c([nH]c4ccccc34)C(=O)CC1C2C(=O)OC (stereo not given) | inactive: 1.74% | – |
| Cc1ccc(N2CC(C(=O)Nc3nc4ccc(S(C)(=O)=O)cc4s3)CC2=O)cc1 (stereo not given) | – | inconclusive: 0.731 µM [cytotoxic, full curve] |
| COc1ccc(CN(C)C[C@@H]2OCCCC[C@H](C)Oc3ccc(NC(=O)Cc4ccccc4)cc3C(=O)N([C@@H](C)CO)C[C@@H]2C)cc1 | inactive: 8.26% | – |
| CCN(Cc1ccccc1)Cc1ccc(OCc2ccccc2)cc1 | inactive: 8.32% | – |
| CCn1cc2nc(SCc3cccc(C(F)(F)F)c3)n(Cc3ccc(Cl)cc3)c(=O)c2n1 | – | inconclusive: 29.1 µM [cytotoxic, single point] |
| C[C@H]1CN([C@@H](C)CO)C(=O)c2cc(NC(=O)C3CCCCC3)ccc2O[C@H]1CN(C)Cc1ccc(-c2ccccc2)cc1 | – | inconclusive: 29.1 µM [cytotoxic, single point] |
| C=CC(=O)Nc1cccc(Oc2ccnc3[nH]ccc23)c1 | – | inconclusive: 29.1 µM [cytotoxic, single point] |
| COc1ccccc1NC(=O)CN1CCN(CC(=O)Nc2ccc(F)cc2F)CC1 | inactive: -2.67% | – |
| CN(C(=O)COC(=O)c1ccccc1Cc1ccccc1)c1c(N)n(Cc2ccccc2)c(=O)[nH]c1=O | – | inconclusive: 25.9 µM [rising, single point] |
| Cn1c(=O)c([N+](=O)[O-])c(Cl)c2ccccc21 | – | inconclusive: 29.1 µM [cytotoxic, single point] |
| C=CCSc1cc(C)nc2c(-c3ccccc3)c(C)nn12 | – | inconclusive: 20.6 µM [cytotoxic, single point] |
| Cc1ccc2cc3cc(C(=O)N4CCN(c5ccc(Cl)cc5)CC4)oc3nc2c1 | inactive: 18.3% | – |
| CCC(OC(=O)C(C)N1C(=O)C(=O)c2ccccc21)C(=O)Nc1ccccc1OC (stereo not given) | – | inconclusive: 29.1 µM [cytotoxic, single point] |
| O=C(NC(=S)Nc1ccc(-c2nc3ncccc3o2)cc1)c1ccccc1F | – | inconclusive: 29.1 µM [cytotoxic, single point] |
| O=S(c1cc(Cl)cc(Cl)c1O)c1cc(Cl)cc(Cl)c1O | – | inconclusive: 29.1 µM [cytotoxic, single point] |
| Cc1ccc(NC(=O)C2(C)CCN2C(=O)C2(c3ccc(Cl)cc3)CC2)cc1 (stereo not given) | – | inconclusive: 16.4 µM [cytotoxic, partial curve] |
| Cc1ccccc1Cn1cnc2c(NS(C)(=O)=O)c(C)c(C)cc21 | – | inconclusive: 25.9 µM [cytotoxic, partial curve, poor fit] |
| CNC(=S)N/N=C/c1ccc(N(C)C)cc1 | inconclusive: 31.5% | – |
| CC(C)[C@H]1COC(NC2=N[C@@H](C(C)C)CO2)=N1 | – | inconclusive: 14.6 µM [cytotoxic, partial curve, poor fit] |
| CCc1ccc(C2C3=C(CC(C)(C)CC3=O)OC3=C2C(=O)CC(C)(C)C3)cc1 | inactive: -13.5% | – |
| CCOc1ccc(NC(=O)c2ccc(S(=O)(=O)N3CCOCC3)cc2)cc1 | – | inconclusive: 29.1 µM [rising, single point] |
| Cc1cnccn1 | inactive: 12.7% | – |
| COc1cccc2sc(NC(=O)CS(=O)(=O)c3ccc(C)cc3)nc12 | inactive: -2.48% | – |

| SMILES | activity change, negative = cytotoxic | Potency |
| --- | --- | --- |
| CCc1c(C)sc(NC(=O)c2cccs2)c1C(=O)OC(C)C | inactive: -0.746% | – |
| Cn1cnc(S(=O)(=O)N2CCCCC2c2cc(C(=O)Nc3ccc(F)c(Cl)c3)no2)c1 (stereo not given) | inactive: 0.005% | – |
| C=CCCC1(C)C(=O)N(c2ccccc2)c2ccccc21 (stereo not given) | – | inconclusive: 29.1 µM [cytotoxic, single point] |
| Cc1ccc(Cl)cc1N1CCN(C(=O)Cc2cn(C)c3ccccc23)CC1 | – | inconclusive: 29.1 µM [cytotoxic, single point] |
| O=C(Nc1nccs1)c1ccc(S(=O)(=O)NCc2cccs2)cc1 | inactive: 4.02% | – |
| O=C(Nc1nccs1)c1ccc(Br)s1 | inactive: 9.55% | – |
| O=C(CCCCn1c(=O)[nH]c2ccccc2c1=O)N1CCN(c2cccc(C(F)(F)F)c2)CC1 | – | inconclusive: 29.1 µM [cytotoxic, single point] |
| COc1cc(/C=C(\C#N)c2nc3ccccc3s2)ccc1OCC(=O)Nc1ccccc1 | – | inconclusive: 32.6 µM [cytotoxic, single point] |
| Cn1ccc(NC(=O)c2ccc(Cl)cc2Cl)n1 | – | inconclusive: 23.1 µM [rising, partial curve, poor fit] |
| COc1ccccc1OCCCCN1CCN(C(c2ccccc2)c2ccccc2)CC1 | – | inconclusive: 20.6 µM [cytotoxic, partial curve] |
| O=C(Cc1c(F)cccc1Cl)Nc1cc(S(=O)(=O)N2CCCCC2)ccc1N1CCOCC1 | – | inconclusive: 20.6 µM [cytotoxic, partial curve, poor fit] |
| COCCCNC(=O)Cn1nc(N2CCN(c3ccccc3)CC2)ccc1=O | inactive: 1.18% | – |
| Brc1cccc(CNc2nc3ccccc3n2CCN2CCCCC2)c1 | inactive: -27.5% | – |
| CN(C)S(=O)(=O)c1ccc(-c2csc(N/N=C/c3ccco3)n2)cc1 | – | inconclusive: 10.3 µM [cytotoxic, partial curve, poor fit] |
| CCC(C)Oc1cc(-c2ccnc(Nc3cccc(Cl)c3)n2)ccn1 (stereo not given) | – | inconclusive: 18.4 µM [cytotoxic, single point] |
| CN(CC(=O)NCc1ccc(F)cc1)CC(=O)Nc1ccc(Cl)c(C(F)(F)F)c1 | – | inconclusive: 20.6 µM [cytotoxic, partial curve, poor fit] |
| COC(=O)c1cc(-c2ccc(C)o2)nc2ccccc12 | inactive: -5.53% | – |
| CC1=C(c2ccc(C(C)C)cc2)S(=O)(=O)N=C1N1CCC(C(=O)NCc2ccccc2)CC1 | inactive: -7.06% | – |
| COc1ccc(C2C(C)C(=O)C(C)C(c3ccc(OC)cc3)N2N=O)cc1 (stereo not given) | inactive: 6.19% | – |
| CCN1C(=O)[C@H]2[C@@H](c3ccc(-c4cccc(Cl)c4)c(OC)c3)N[C@@](C)(C(=O)OC)[C@H]2C1=O | – | inconclusive: 25.9 µM [cytotoxic, single point] |
| CN1CCN(S(=O)(=O)c2ccc(NC(=O)c3ccc(Br)o3)cc2)CC1 | inactive: -3.16% | – |
| O=C(N/N=C/c1cnc(N2CCOCC2)s1)c1ccccc1 | – | inconclusive: 20.6 µM [rising, partial curve, poor fit] |

In the list so far, these contain an aryl thioether with sulfur outside any ring:

| SMILES | activity change, negative = cytotoxic | Potency |
| --- | --- | --- |
| CCn1cc2nc(SCc3cccc(C(F)(F)F)c3)n(Cc3ccc(Cl)cc3)c(=O)c2n1 | – | inconclusive: 29.1 µM [cytotoxic, single point] |
| C=CCSc1cc(C)nc2c(-c3ccccc3)c(C)nn12 | – | inconclusive: 20.6 µM [cytotoxic, single point] |
